Test results from publication doi:10.1101/2025.02.06.636899.
These are yes or no findings as the source states them, for the method shown. In cells and extracts the contact can be indirect. Some entries that bind do so weakly or less than the wild type.

Legend:
Assay in all cases: co-IP
[1] = target: HA-tagged Q331K human TDP-43 (human) (UniProt Q13148)
HA-WT-TDP-43 (human) = HA-WT-TDP-43 (human) (UniProt Q13148)
HA-RAD23A = HA-RAD23A (UniProt P54725)

B1: Ubiquitin specific peptidase 13 (USP13) (enzyme, UniProt Q92995 1-863)
chain: MQRRGALFGMPGGSGGRKMAAGDIGELLVPHMPTIRVPRSGDRVYKNECAFSYDSPNSEGGLYVCMNTFLAFGREHVERHFRKTGQSVYMHLKRHVREKVRGASGGALPKRRNSKIFLDLDTDDDLNSDDYEYEDEAKLVIFPDHYEIALPNIEELPALVTIACDAVLSSKSPYRKQDPDTWENELPVSKYANNLTQLDNGVRIPPSGWKCARCDLRENLWLNLTDGSVLCGKWFFDSSGGNGHALEHYRDMGYPLAVKLGTITPDGADVYSFQEEEPVLDPHLAKHLAHFGIDMLHMHGTENGLQDNDIKLRVSEWEVIQESGTKLKPMYGPGYTGLKNLGNSCYLSSVMQAIFSIPEFQRAYVGNLPRIFDYSPLDPTQDFNTQMTKLGHGLLSGQYSKPPVKSELIEQVMKEEHKPQQNGISPRMFKAFVSKSHPEFSSNRQQDAQEFFLHLVNLVERNRIGSENPSDVFRFLVEERIQCCQTRKVRYTERVDYLMQLPVAMEAATNKDELIAYELTRREAEANRRPLPELVRAKIPFSACLQAFSEPENVDDFWSSALQAKSAGVKTSRFASFPEYLVVQIKKFTFGLDWVPKKFDVSIDMPDLLDINHLRARGLQPGEEELPDISPPIVIPDDSKDRLMNQLIDPSDIDESSVMQLAEMGFPLEACRKAVYFTGNMGAEVAFNWIIVHMEEPDFAEPLTMPGYGGAASAGASVFGASGLDNQPPEEIVAIITSMGFQRNQAIQALRATNNNLERALDWIFSHPEFEEDSDFVIEMENNANANIISEAKPEGPRVKDGSGTYELFAFISHMGTSTMSGHYICHIKKEGRWVIYNDHKVCASERPPKDLGYMYFYRRIPS
Which binding [1] does the source give for B1 here?
Its binding is “binds”.

And the binding (HA-WT-TDP-43 (human))?
Its binding is “binds”.

And the binding (HA-RAD23A)?
The binding was “no binding”.
